The values below come from PMC5304334, “Antifouling potential of Nature-inspired sulfated compounds” (Scientific Reports, 2017).

This data set concerns Mytilus galloprovincialis plantigrades. The data set can be described thus: Anti-settlement bioassay with mussel plantigrades (effectiveness and mortality). To be noted: for Therapeutic ratio LC50/EC50 (as printed in text with μM): LC50 taken as >500 μM. In kind it is in vivo. As to the method:
M. galloprovincialis juvenile (0.5 cm shell length approximately) aggregates were collected from mussel beds from the intertidal rocky shore, during low neap tides at Memória beach, Matosinhos, Portugal (41°13′59″N; 8°43′28″W), and immediately transported to the laboratory. M. galloprovincialis plantigrade post-larvae (0.5–2 mm) were screened among the small mussel aggregates in a binocular magnifier (Olympus SZX2-ILLT), gently washed with filtered seawater to remove organic debris and sand particles and isolated in a petri dish with filtered seawater immediately before the bioassays.
For the screening bioassay, competent M. galloprovincialis plantigrades (showing exploring behavior, ie, moving their foot searching for the appropriate substrate to settle) were selected and exposed to the series of sulfated compounds 1–13 at two concentrations (250 and 50 μM) in 24-well microplates for 15 h, at 18 ± 1 °C, in the darkness. Bioassays time frame was selected based on preliminary bioassays to ensure that the response measured is reflecting the compounds effect. Test solutions were prepared in filtered seawater (previously treated by UV light, and carbon filters and mechanically filtered with […] filter before use) and obtained by dilution of the compounds stock solutions (50 mM) in ultra-pure water. Four well replicates were used per condition with five plantigrades per well and 2.5 mL of test solution. A negative control, with ultra-pure water was included in all bioassays, as well as a positive control with 5 μM CuSO4 (a potent AF agent). At the end of the exposure period, the anti-settlement activity was determined by the presence/absence of byssal threads produced by each individual efficiently attached for all the conditions tested.
Data from the anti-settlement and antibacterial screenings were analyzed using a one-way analysis of variance (ANOVA) followed by a Dunnett test against the control (p < 0.05). […]

In the case of `O=c1c2ccc(O[C@@H]3O[C@H](COS(=O)(=O)O)[C@@H](OS(=O)(=O)O)[C@H](OS(=O)(=O)O)[C@H]3OS(=O)(=O)O)cc2oc2cc(O[C@@H]3O[C@H](COS(=O)(=O)O)[C@@H](OS(=O)(=O)O)[C@H](OS(=O)(=O)O)[C@H]3OS(=O)(=O)O)ccc12` [Compound 6], the “Therapeutic ratio LC50/EC50 (as printed in text with μM)” value is above 21.56 µM.

Regarding `O=C(O)c1cc(OS(=O)(=O)O)c(OS(=O)(=O)O)c(OS(=O)(=O)O)c1` [Compound 12, gallic acid persulfate], the “Therapeutic ratio LC50/EC50 (as printed in text with μM)” value was above 26.61 µM. `N#Cc1c(-c2ccc(Cl)cc2)[nH]c(C(F)(F)F)c1Br` [ECONEA®]: under “LC50 of sulfated compounds taken as >500 μM”, the “LC50/EC50, therapeutic ratio” value is on record as 26.86.
